# Measured values taken from paper PMC4391915.
# Experiments:
# [1] = molecular target: pM-SRC1(241-386) (Gal4 DNA-binding domain fused to the NR box of human SRC1) (human); test: two-hybrid; mammalian 2-hybrid in HepG2 cells; pVP16-VDR as prey, pM-SRC1, pM-GRIP1 or pM-ACTR as bait; 5XGal4-TATA-Luc reporter; 120 nM 1,25D3 for 24 h; with cotransfected pCDNA-RXRWT
# [2] = molecular target: pM-SRC1(241-386) (Gal4 DNA-binding domain fused to the NR box of human SRC1) (human); test: two-hybrid; mammalian 2-hybrid in HepG2 cells; pVP16-VDR as prey, pM-SRC1, pM-GRIP1 or pM-ACTR (NR box fused to the Gal4 DNA-binding domain) as bait; 5XGal4-TATA-Luc reporter; 120 nM 1,25D3 for 24 h; without cotransfected pCDNA-RXRWT
# [3] = molecular target: pM-RXRWT (Gal4 DNA-binding domain fused to full-length human RXR) (human); test: two-hybrid; mammalian 2-hybrid in HepG2 cells; pVP16-VDR as prey, pM-RXR as bait; 5XGal4-TATA-Luc reporter; 120 nM 1,25D3 for 24 h; with cotransfected pSG5-SRC1
# [4] = molecular target: pM-RXRWT (Gal4 DNA-binding domain fused to full-length human RXR) (human); test: two-hybrid; mammalian 2-hybrid in HepG2 cells; pVP16-VDR as prey, pM-RXR (Gal4 DNA-binding domain fusion) as bait; 5XGal4-TATA-Luc reporter; 120 nM 1,25D3 for 24 h; without cotransfected pSG5-SRC1
# [5] = molecular target: recombinant full-length RXRWT (polyhistidine-tagged) (human); test: native gel or EMSA; 100 ng recombinant VDR and 100 ng recombinant RXRWT with 1 pmol Cy5-labelled VDRE oligo (canonical or CYP3A4 XREM); 100 nM 1,25D3 or ethanol; 25°C; 100 mM KCl, 10 mM HEPES, 20 mM MgCl2, pH 7.6; 6% native gel; the complex is seen on the DNA; both purified
binding [1],binding [2],binding [3],binding [4],binding [5],Binder
binds,binds,binds,binds,–,"pVP16-human VDR (human vitamin D receptor) (receptor, UniProt P11473 1-427) MEAMAASTSLPDPGDFDRNVPRICGVCGDRATGFHFNAMTCEGCKGFFRRSMKRKALFTCPFNGDCRITKDNRRHCQACRLKRCVDIGMMKEFILTDEEVQRKREMILKRKEEEALKDSLRPKLSEEQQRIIAILLDAHHKTYDPTYSDFCQFRPPVRVNDGGGSHPSRPNSRHTPSFSGDSSSSCSDHCITSSDMMDSSSFSNLDLSEEDSDDPSVTLELSQLSMLPHLADLVSYSIQKVIGFAKMIPGFRDLTSEDQIVLLKSSAIEVIMLRSNESFTMDDMSWTCGNQDYKYRVSDVTKAGHSLELIEPLIKFQVGLKKLNLHEEEHVLLMAICIVSPDRPGVQDAALIEAIQDRLSNTLQTYIRCRHPPPGSHLLYAKMIQKLADLRSLNEEHSKQYRCLSFQPECSMKLTPLVLEVFGNEIS"
–,–,–,–,binds,"recombinant full-length human VDR (pET32a, polyhistidine-tagged) (receptor, UniProt P11473 1-427) MEAMAASTSLPDPGDFDRNVPRICGVCGDRATGFHFNAMTCEGCKGFFRRSMKRKALFTCPFNGDCRITKDNRRHCQACRLKRCVDIGMMKEFILTDEEVQRKREMILKRKEEEALKDSLRPKLSEEQQRIIAILLDAHHKTYDPTYSDFCQFRPPVRVNDGGGSHPSRPNSRHTPSFSGDSSSSCSDHCITSSDMMDSSSFSNLDLSEEDSDDPSVTLELSQLSMLPHLADLVSYSIQKVIGFAKMIPGFRDLTSEDQIVLLKSSAIEVIMLRSNESFTMDDMSWTCGNQDYKYRVSDVTKAGHSLELIEPLIKFQVGLKKLNLHEEEHVLLMAICIVSPDRPGVQDAALIEAIQDRLSNTLQTYIRCRHPPPGSHLLYAKMIQKLADLRSLNEEHSKQYRCLSFQPECSMKLTPLVLEVFGNEIS"

# No constants are given. Whether binding was seen depends on the method and setting. Binding can be weak; no strength is given. For some assays here: Where a sequence is shown, tags or fusion partners need not be part of it.
